Our source for the binding values is patent US20210221886A1.

Results are given in words; binding and its absence hold for the method and conditions named. Binding calls can cover weak binding; strength is not graded here.

The target of this assay is dog CD47 (dog (beagle)). Put plainly: flow cytometry on dog red blood cells, APC anti-human IgG Fc detection; upper curve. A general note: A flow cytometer gives signals particle by particle.

B1: anti-CD47 antibody STI-6643 (antibody, human IgG4, V domains shown)
VH: QVQLVQSGAEVKKPGASVKVSCKASGYTFTSYYMHWVRQAPGQGLEWMGIINPSGGSTSYAQKFQGRVTMTRDTSTSTVYMELSSLRSEDTAVYYCARSTLWFSEFDYWGQGTLVTVSS
VL: QSVLTQPSSVSASPGQSITISCSGTSSDVGGHNYVSWYQQHPGKAPKLMIYDVTKRPSGVPDRFSGSKSGNTASLTVSGLQAEDEADYYCLSYAGSRVYVFGTGTKLTVL
For B1, the binding result is recorded as “binds”.
